According to PMC11076521:
These are yes or no findings as the source states them, for the method shown. Binding seen in cells or lysates may run through a third protein. Where a sequence is shown, tags or fusion partners need not be part of it.

Molecular target: MYC-tagged FTL wild type, P02792
Assay: co-IP; HeLa-FTH1 KO cells; anti-MYC IP of MYC-FTH1/FTL, immunoblot; 50 mM Tris-HCl pH 7.5, 150 mM NaCl, 0.5% Nonidet P40, 1 mM DTT; quantified relative to FTH1-WT, normalized to immunoprecipitated FTH1/FTL and NCOA4 input
Conditions: remark: other sources report otherwise

B1: C-terminally HA-FLAG-tagged NCOA4, Q13772 1-614 (natural protein)
chain: MNTFQDQSGSSSNREPLLRCSDARRDLELAIGGVLRAEQQIKDNLREVKAQIHSCISRHLECLRSREVWLYEQVDLIYQLKEETLQQQAQQLYSLLGQFNCLTHQLECTQNKDLANQVSVCLERLGSLTLKPEDSTVLLFEADTITLRQTITTFGSLKTIQIPEHLMAHASSANIGPFLEKRGCISMPEQKSASGIVAVPFSEWLLGSKPASGYQAPYIPSTDPQDWLTQKQTLENSQTSSRACNFFNNVGGNLKGLENWLLKSEKSSYQKCNSHSTTSSFSIEMEKVGDQELPDQDEMDLSDWLVTPQESHKLRKPENGSRETSEKFKLLFQSYNVNDWLVKTDSCTNCQGNQPKGVEIENLGNLKCLNDHLEAKKPLSTPSMVTEDWLVQNHQDPCKVEEVCRANEPCTSFAECVCDENCEKEALYKWLLKKEGKDKNGMPVEPKPEPEKHKDSLNMWLCPRKEVIEQTKAPKAMTPSRIADSFQVIKNSPLSEWLIRPPYKEGSPKEVPGTEDRAGKQKFKSPMNTSWCSFNTADWVLPGKKMGNLSQLSSGEDKWLLRKKAQEVLLNSPLQEEHNFPPDHYGLPAVCDLFACMQLKVDKEKWLYRTPLQM
- binding: no binding
